Assay results reported in PubChem BioAssay AID1487 (National Center for Advancing Translational Sciences (NCATS), 2009).
This is one part of the list. Shown are side measurements of this screen, not its main read-out; they come without a call. Most of these compounds were active or inconclusive in the main read-out, so they are no random draw. The note in brackets gives the kind of curve behind each potency; many fits are weak.

Assay: qHTS Assay for Modulators of Lamin A Splicing
Conditions: HeLa LMNA splicing GFP/RFP minigene ratio, 48 h
Procedure, shortened: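 S3 HeLa stable clones carrying a lamin A-EGFP splicing minigene plus DsRed2 were seeded at 600 cells/well in Opti-MEM with 2% FBS, pin-dosed and incubated 48 h at 37°C. Acumen cytometry (488 nm) gave the GFP/RFP total-intensity ratio.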

[1] = measured here: RFP viability control channel
[2] = measured here: GFP splicing reporter channel

Clc1ccccc1Cc1noc(CN2CCCCC2c2ccccn2)n1 (stereo unspecified)
AC50 [1]: 35.5 µM [falling, single point]

Cc1nc(N2CCN(C(=O)c3ccc(Cl)cc3)CC2)c(C#N)c2c1COC(C)(C)C2
AC50 [2]: 15.8 µM [rising, single point] | AC50 [1]: 35.5 µM [rising, single point]

CCOc1ccc(-c2ccc(SCC(=O)Nc3nnc(CC)s3)nn2)cc1
AC50 [2]: 35.5 µM [rising, single point] | AC50 [1]: 31.6 µM [rising, single point]

O=C(COc1ccccc1)N1N=C(c2cccnc2)CC1(O)C(F)(F)F (stereo unspecified)
AC50 [2]: 11.2 µM [rising, single point] | AC50 [1]: 12.6 µM [rising, single point]

CCc1cc2ccccc2nc1SCC(=O)N1CCN(C(=O)c2ccco2)CC1
AC50 [2]: 14.1 µM [rising, single point] | AC50 [1]: 15.8 µM [rising, single point]

O=C(c1ccc(Cn2c(=S)[nH]c3ccccc3c2=O)cc1)N1CCN(c2ccccn2)CC1
AC50 [2]: 28.2 µM [falling, partial curve, poor fit]

Cc1cc(Nc2ccccc2)nc2cc(O)ccc12
AC50 [2]: 0.112 µM [falling, full curve]

N#CCCn1cc(C=C(C#N)C#N)c(-c2ccc(-c3ccccc3)cc2)n1
AC50 [1]: 25.1 µM [rising, single point]

N/C(Cc1ccc(Cl)cc1Cl)=N\OC(=O)Cc1cccs1
AC50 [2]: 14.1 µM [rising, single point] | AC50 [1]: 31.6 µM [rising, single point]

Cc1ccc2cc(-c3noc(C(C)(C)C)n3)c(=O)[nH]c2c1
AC50 [2]: 12.6 µM [rising, partial curve] | AC50 [1]: 35.5 µM [rising, single point]

CCN(CC)c1ncnc2sc3c(c12)CCC3
AC50 [2]: 14.1 µM [rising, partial curve] | AC50 [1]: 17.8 µM [rising, single point]

CCCn1c2ccccc2c2nnc(SC(CC)C(=O)Nc3cc(C)on3)nc21 (stereo unspecified)
AC50 [1]: 0.316 µM [rising, full curve, poor fit]

COc1ccc2sc(N(CCN(C)C)C(=O)c3cc(Cl)sc3Cl)nc2c1
AC50 [2]: 2.51 µM [rising, partial curve] | AC50 [1]: 1.26 µM [rising, full curve]

C#CCNC(=O)c1cc2sccc2n1C
AC50 [1]: 20 µM [falling, partial curve, poor fit]

Cc1onc(-c2ccccc2Cl)c1C(=O)Nc1nnc(-c2ccc(Cl)cc2Cl)s1
AC50 [2]: 10 µM [rising, partial curve] | AC50 [1]: 10 µM [rising, partial curve]

Cc1cc(C)n(C(C)CC(=O)Nc2ccc(C)c(F)c2)n1 (stereo unspecified)
AC50 [1]: 0.355 µM [falling, partial curve]

Cc1ccc(NC(=O)Cn2cccc2)cc1Cl
AC50 [1]: 20 µM [rising, partial curve]

CN1CCN2c3ccccc3Cc3ccccc3[C@@H]2C1
AC50 [2]: 0.631 µM [falling, full curve, poor fit] | AC50 [1]: 14.1 µM [falling, single point]

N#Cc1nc(COc2ccccc2F)oc1NCCCn1ccnc1
AC50 [2]: 35.5 µM [rising, single point]

Cc1ccccc1C(=O)NC(=S)Nc1sc2c(c1C#N)CCCC2
AC50 [1]: 25.1 µM [rising, single point]

O=S(=O)(NCC1COc2ccccc2O1)c1ccc2ccccc2c1 (stereo unspecified)
AC50 [1]: 20 µM [rising, single point]

CCOc1ccc(S(=O)(=O)c2c(C(=O)c3ccccc3)cnc3cc4c(cc23)OCCO4)cc1
AC50 [1]: 35.5 µM [rising, single point]

O=C(Cc1ccccc1)N1CCN=C1SCc1ccc([N+](=O)[O-])cc1
AC50 [1]: 22.4 µM [rising, single point]

CCOC(=O)C1C(=O)C=C(N2CCOCC2)CC1c1cccc(OC)c1 (stereo unspecified)
AC50 [1]: 31.6 µM [rising, single point]

CCN(CC)c1ccc(NC(=O)CN2C(=O)c3cccnc3Oc3ccc(Cl)cc32)c(C)c1
AC50 [1]: 35.5 µM [falling, single point]

O=C(Nc1ccccc1)Nc1ccc(Br)cc1F
AC50 [1]: 35.5 µM [rising, single point]

CCCOc1ccc(CSC2=NCCN2)cc1[N+](=O)[O-]
AC50 [2]: 35.5 µM [falling, single point] | AC50 [1]: 12.6 µM [falling, partial curve]

Cc1ccc(S(=O)(=O)Nc2ccccc2C(=O)OC(C)C(=O)Nc2ccc3ccccc3c2)cc1[N+](=O)[O-] (stereo unspecified)
AC50 [1]: 12.6 µM [rising, single point]

CN(Cc1nc(C(c2ccccc2)c2ccccc2)no1)CC1COCCO1 (stereo unspecified)
AC50 [2]: 0.158 µM [rising, full curve] | AC50 [1]: 0.178 µM [rising, full curve, poor fit]

Cc1cc(N)c2ccccc2[n+]1CCCCCCCCCCCCCC[n+]1c(C)cc(N)c2ccccc21
AC50 [2]: 3.98 µM [falling, full curve] | AC50 [1]: 2.82 µM [falling, full curve]

COc1cccc(Cn2c(NCc3ccco3)nc3c2c(=O)n(C)c(=O)n3C)c1
AC50 [1]: 2 µM [rising, full curve, poor fit]

Cc1cccc(/C=C2/S/C(=N/N=C3\CC4CCC3(C)C4(C)C)NC2=O)c1 (stereo unspecified)
AC50 [2]: 25.1 µM [falling, single point] | AC50 [1]: 35.5 µM [falling, single point]

O=C(c1ccccc1Oc1ccccc1)N1CCN(c2ccccc2)CC1
AC50 [1]: 17.8 µM [rising, single point]

COc1ccccc1N1CCN(C(=O)/C=C/c2ccc(C)cc2)CC1
AC50 [2]: 12.6 µM [rising, single point] | AC50 [1]: 12.6 µM [rising, single point]

COc1ccc(OC(=O)COc2ccc(C)cc2)cc1
AC50 [1]: 7.08 µM [rising, partial curve, poor fit]

N#C/C(=C/c1cccs1)c1nc2ccccc2[nH]1
AC50 [1]: 0.447 µM [rising, full curve]
